In assay [1] the target is MUC1* growth factor receptor (Homo sapiens (Human)) (UniProt P15941). The assay can be described thus: pull-down assays, ELISAs and nanoparticle binding experiments.
Assay [2] shares this target. The assay can be described thus: co-immunoprecipitation with Ab-5 from T47D and human stem cell extracts, Western blot.
Assay [3] shares this target. The assay can be described thus: co-immunoprecipitation with Ab-5, Western blot (FIG. 22, FIG. 23). (In general: In western blotting, separated proteins are transferred to a membrane and probed.)
The target is the same in assay [4]. Kind of assay: co-immunoprecipitation from T47D cell extracts with anti-MUC1 cytoplasmic tail antibody Ab-5, Western blot (FIG. 22).
The target is the same in assay [5]. Kind of assay: co-immunoprecipitation from iPS7 and HES3 stem cell extracts with Ab-5, Western blot (FIG. 23).

The chains behind the UniProt entries cited, without tags or fusion partners. Where a name states a change or a piece, a line headed by the entry shows the natural chain unless it says otherwise.
UniProt P15941: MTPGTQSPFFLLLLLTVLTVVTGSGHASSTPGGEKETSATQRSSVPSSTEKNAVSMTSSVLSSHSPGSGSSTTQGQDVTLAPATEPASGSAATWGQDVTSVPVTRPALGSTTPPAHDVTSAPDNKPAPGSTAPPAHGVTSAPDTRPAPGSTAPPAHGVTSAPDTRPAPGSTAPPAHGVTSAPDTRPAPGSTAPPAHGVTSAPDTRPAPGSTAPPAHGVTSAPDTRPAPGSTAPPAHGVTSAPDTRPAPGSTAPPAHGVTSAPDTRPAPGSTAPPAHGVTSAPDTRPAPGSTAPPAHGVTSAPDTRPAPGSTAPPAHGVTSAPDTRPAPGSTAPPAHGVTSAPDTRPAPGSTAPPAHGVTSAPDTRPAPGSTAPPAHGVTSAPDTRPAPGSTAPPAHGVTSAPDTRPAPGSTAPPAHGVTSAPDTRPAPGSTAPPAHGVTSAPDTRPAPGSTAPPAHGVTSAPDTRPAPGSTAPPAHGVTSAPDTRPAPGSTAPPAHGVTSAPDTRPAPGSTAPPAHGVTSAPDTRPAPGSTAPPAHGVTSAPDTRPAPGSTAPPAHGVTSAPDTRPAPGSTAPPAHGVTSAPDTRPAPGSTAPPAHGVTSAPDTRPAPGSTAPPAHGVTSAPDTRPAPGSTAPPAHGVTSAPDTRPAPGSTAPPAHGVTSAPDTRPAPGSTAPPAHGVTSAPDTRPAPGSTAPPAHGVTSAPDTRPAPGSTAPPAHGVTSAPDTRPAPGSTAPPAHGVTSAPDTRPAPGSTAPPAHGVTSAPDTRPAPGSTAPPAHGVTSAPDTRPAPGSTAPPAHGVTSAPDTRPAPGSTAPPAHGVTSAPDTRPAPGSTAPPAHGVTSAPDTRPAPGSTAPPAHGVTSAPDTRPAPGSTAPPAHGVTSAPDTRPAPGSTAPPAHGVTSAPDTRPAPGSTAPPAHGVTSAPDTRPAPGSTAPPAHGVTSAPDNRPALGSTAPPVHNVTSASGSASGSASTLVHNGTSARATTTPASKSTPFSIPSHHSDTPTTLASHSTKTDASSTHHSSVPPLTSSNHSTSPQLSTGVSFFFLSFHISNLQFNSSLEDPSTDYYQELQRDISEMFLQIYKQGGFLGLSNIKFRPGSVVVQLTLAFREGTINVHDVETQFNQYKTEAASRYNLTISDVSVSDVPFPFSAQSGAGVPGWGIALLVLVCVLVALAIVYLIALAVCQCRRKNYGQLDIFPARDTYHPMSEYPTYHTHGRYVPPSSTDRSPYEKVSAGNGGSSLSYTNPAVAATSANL
UniProt Q9Y5B8: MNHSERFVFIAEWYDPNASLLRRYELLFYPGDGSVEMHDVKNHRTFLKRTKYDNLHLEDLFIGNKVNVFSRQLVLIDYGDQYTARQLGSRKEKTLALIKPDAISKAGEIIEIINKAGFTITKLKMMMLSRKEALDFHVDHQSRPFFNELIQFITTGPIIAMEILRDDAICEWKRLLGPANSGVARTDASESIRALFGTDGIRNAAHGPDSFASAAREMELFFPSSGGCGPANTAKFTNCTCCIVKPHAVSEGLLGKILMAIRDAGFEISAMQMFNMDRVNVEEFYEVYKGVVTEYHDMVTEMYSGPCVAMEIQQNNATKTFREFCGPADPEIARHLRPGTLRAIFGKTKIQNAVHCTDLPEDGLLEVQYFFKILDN

These are yes or no findings as the source states them, for the method shown. In cells and extracts the contact can be indirect. Some binding calls cover weakened binding; strength is not graded here.

“full-length human NME7 (from UniProt Q9Y5B8 1-376)”: in assay [1], the binding result is “binds”.

On to “human NME7-X1 (from UniProt Q9Y5B8 125-376) (ligand)”, for which the binding result in assay [2], in assay [3], in assay [4] and in assay [5] was “binds” throughout.

Turning to “recombinant human NME7AB (from UniProt Q9Y5B8 92-376) (ligand)”, in assay [1], the binding entry is listed as “binds”.
